Results published in publication PMC7689938, “Abscisic acid promotes jasmonic acid biosynthesis via a ‘SAPK10‐bZIP72‐AOC’ pathway to synergistically inhibit seed germination in rice (Oryza sativa)” (The New Phytologist, 2020).

Tests used:
[1] = molecular target: GST-bZIP72 (rice (Oryza sativa L. ssp. japonica cv Nipponbare)); test: pull-down; GST fusion on glutathione high-capacity magnetic agarose beads; 50 mM Tris-HCl pH 7.5, 5% glycerol, 1 mM EDTA, 1 mM DTT, 1 mM PMSF, 0.01% Nonidet P-40, 150 mM KCl; 4°C, 2 h; blots with anti-His and anti-GST; both purified
[2] = molecular target: bZIP72 fused to the GAL4-binding domain (rice (Oryza sativa L. ssp. japonica cv Nipponbare)); test: two-hybrid; Matchmaker GAL4 two-hybrid system, constructs cotransformed into yeast strain Y2H Gold, selected on medium lacking Leu, Trp and His with 0.04 mg/ml X-alpha-Gal and 100 ng/ml Aureobasidin A
[3] = molecular target: bZIP72-FLAG (rice (Oryza sativa L. ssp. japonica cv Nipponbare)); test: co-IP; bZIP72-FLAG coexpressed with SAPK10-GFP or empty GFP in tobacco leaves; extract on anti-FLAG M2 magnetic beads, 4°C, 2 h; blots with anti-GFP and anti-FLAG

| binding [1] | binding [2] | Binder | further results |
| --- | --- | --- | --- |
| binds | – | His-SAPK10 (enzyme, UniProt Q75H77 1-362, looked up, SAPK10 (SnRK2 type kinase), rice; full-length CDS in pET28a; source: Transetta (DE3) cells, purified (6 x His-Tagged Protein Purification Kit)) MDRAALTVGPGMDMPIMHDGDRYELVRDIGSGNFGVARLMRSRADGQLVAVKYIERGDKIDENVQREIINHRSLRHPNIIRFKEVILTPTHLAIVMEYASGGELFERICNAGRFSEDEARFFFQQLISGVSYCHSMQVCHRDLKLENTLLDGSTAPRLKICDFGYSKSSVLHSQPKSTVGTPAYIAPEVLLKKEYDGKIADVWSCGVTLYVMLVGAYPFEDPDEPKNFRKTIQRILGVQYSIPDYVHISPECRDLIARIFVANPATRISIPEIRNHPWFLKNLPADLMDDSKMSSQYEEPEQPMQSMDEIMQILAEATIPAAGSGGINQFLNDGLDLDDDMEDLDSDPDLDVESSGEIVYAM | – |
| – | binds | SAPK10 fused to the GAL4 activation domain (enzyme, UniProt Q75H77 1-362) MDRAALTVGPGMDMPIMHDGDRYELVRDIGSGNFGVARLMRSRADGQLVAVKYIERGDKIDENVQREIINHRSLRHPNIIRFKEVILTPTHLAIVMEYASGGELFERICNAGRFSEDEARFFFQQLISGVSYCHSMQVCHRDLKLENTLLDGSTAPRLKICDFGYSKSSVLHSQPKSTVGTPAYIAPEVLLKKEYDGKIADVWSCGVTLYVMLVGAYPFEDPDEPKNFRKTIQRILGVQYSIPDYVHISPECRDLIARIFVANPATRISIPEIRNHPWFLKNLPADLMDDSKMSSQYEEPEQPMQSMDEIMQILAEATIPAAGSGGINQFLNDGLDLDDDMEDLDSDPDLDVESSGEIVYAM | – |
| – | binds | SAPK10^S177A fused to the GAL4 activation domain (enzyme, UniProt Q75H77 1-362) MDRAALTVGPGMDMPIMHDGDRYELVRDIGSGNFGVARLMRSRADGQLVAVKYIERGDKIDENVQREIINHRSLRHPNIIRFKEVILTPTHLAIVMEYASGGELFERICNAGRFSEDEARFFFQQLISGVSYCHSMQVCHRDLKLENTLLDGSTAPRLKICDFGYSKSSVLHSQPKATVGTPAYIAPEVLLKKEYDGKIADVWSCGVTLYVMLVGAYPFEDPDEPKNFRKTIQRILGVQYSIPDYVHISPECRDLIARIFVANPATRISIPEIRNHPWFLKNLPADLMDDSKMSSQYEEPEQPMQSMDEIMQILAEATIPAAGSGGINQFLNDGLDLDDDMEDLDSDPDLDVESSGEIVYAM | – |
| – | – | SAPK10-GFP (enzyme, UniProt Q75H77 1-362) MDRAALTVGPGMDMPIMHDGDRYELVRDIGSGNFGVARLMRSRADGQLVAVKYIERGDKIDENVQREIINHRSLRHPNIIRFKEVILTPTHLAIVMEYASGGELFERICNAGRFSEDEARFFFQQLISGVSYCHSMQVCHRDLKLENTLLDGSTAPRLKICDFGYSKSSVLHSQPKSTVGTPAYIAPEVLLKKEYDGKIADVWSCGVTLYVMLVGAYPFEDPDEPKNFRKTIQRILGVQYSIPDYVHISPECRDLIARIFVANPATRISIPEIRNHPWFLKNLPADLMDDSKMSSQYEEPEQPMQSMDEIMQILAEATIPAAGSGGINQFLNDGLDLDDDMEDLDSDPDLDVESSGEIVYAM | binding [3]: binds |
| binds | – | His-SAPK10^S177A (enzyme, UniProt Q75H77 1-362, looked up, SAPK10, rice, Ser177 replaced by alanine; full-length CDS in pET28a; source: Transetta (DE3) cells, purified (6 x His-Tagged Protein Purification Kit)) MDRAALTVGPGMDMPIMHDGDRYELVRDIGSGNFGVARLMRSRADGQLVAVKYIERGDKIDENVQREIINHRSLRHPNIIRFKEVILTPTHLAIVMEYASGGELFERICNAGRFSEDEARFFFQQLISGVSYCHSMQVCHRDLKLENTLLDGSTAPRLKICDFGYSKSSVLHSQPKATVGTPAYIAPEVLLKKEYDGKIADVWSCGVTLYVMLVGAYPFEDPDEPKNFRKTIQRILGVQYSIPDYVHISPECRDLIARIFVANPATRISIPEIRNHPWFLKNLPADLMDDSKMSSQYEEPEQPMQSMDEIMQILAEATIPAAGSGGINQFLNDGLDLDDDMEDLDSDPDLDVESSGEIVYAM | – |

Results are given in words; binding and its absence hold for the method and conditions named. Binding calls can cover weak binding; strength is not graded here. Sequences can lack the tags named with a protein. For some assays here: In cells and extracts the contact can be indirect.
